According to PMC7429352:
These are yes or no findings as the source states them, for the method shown. Binding seen in cells or lysates may run through a third protein. Some binding calls cover weakened binding; strength is not graded here.

By UniProt entry, the sequences of proteins in these tests, tags left out.
UniProt Q5VV67: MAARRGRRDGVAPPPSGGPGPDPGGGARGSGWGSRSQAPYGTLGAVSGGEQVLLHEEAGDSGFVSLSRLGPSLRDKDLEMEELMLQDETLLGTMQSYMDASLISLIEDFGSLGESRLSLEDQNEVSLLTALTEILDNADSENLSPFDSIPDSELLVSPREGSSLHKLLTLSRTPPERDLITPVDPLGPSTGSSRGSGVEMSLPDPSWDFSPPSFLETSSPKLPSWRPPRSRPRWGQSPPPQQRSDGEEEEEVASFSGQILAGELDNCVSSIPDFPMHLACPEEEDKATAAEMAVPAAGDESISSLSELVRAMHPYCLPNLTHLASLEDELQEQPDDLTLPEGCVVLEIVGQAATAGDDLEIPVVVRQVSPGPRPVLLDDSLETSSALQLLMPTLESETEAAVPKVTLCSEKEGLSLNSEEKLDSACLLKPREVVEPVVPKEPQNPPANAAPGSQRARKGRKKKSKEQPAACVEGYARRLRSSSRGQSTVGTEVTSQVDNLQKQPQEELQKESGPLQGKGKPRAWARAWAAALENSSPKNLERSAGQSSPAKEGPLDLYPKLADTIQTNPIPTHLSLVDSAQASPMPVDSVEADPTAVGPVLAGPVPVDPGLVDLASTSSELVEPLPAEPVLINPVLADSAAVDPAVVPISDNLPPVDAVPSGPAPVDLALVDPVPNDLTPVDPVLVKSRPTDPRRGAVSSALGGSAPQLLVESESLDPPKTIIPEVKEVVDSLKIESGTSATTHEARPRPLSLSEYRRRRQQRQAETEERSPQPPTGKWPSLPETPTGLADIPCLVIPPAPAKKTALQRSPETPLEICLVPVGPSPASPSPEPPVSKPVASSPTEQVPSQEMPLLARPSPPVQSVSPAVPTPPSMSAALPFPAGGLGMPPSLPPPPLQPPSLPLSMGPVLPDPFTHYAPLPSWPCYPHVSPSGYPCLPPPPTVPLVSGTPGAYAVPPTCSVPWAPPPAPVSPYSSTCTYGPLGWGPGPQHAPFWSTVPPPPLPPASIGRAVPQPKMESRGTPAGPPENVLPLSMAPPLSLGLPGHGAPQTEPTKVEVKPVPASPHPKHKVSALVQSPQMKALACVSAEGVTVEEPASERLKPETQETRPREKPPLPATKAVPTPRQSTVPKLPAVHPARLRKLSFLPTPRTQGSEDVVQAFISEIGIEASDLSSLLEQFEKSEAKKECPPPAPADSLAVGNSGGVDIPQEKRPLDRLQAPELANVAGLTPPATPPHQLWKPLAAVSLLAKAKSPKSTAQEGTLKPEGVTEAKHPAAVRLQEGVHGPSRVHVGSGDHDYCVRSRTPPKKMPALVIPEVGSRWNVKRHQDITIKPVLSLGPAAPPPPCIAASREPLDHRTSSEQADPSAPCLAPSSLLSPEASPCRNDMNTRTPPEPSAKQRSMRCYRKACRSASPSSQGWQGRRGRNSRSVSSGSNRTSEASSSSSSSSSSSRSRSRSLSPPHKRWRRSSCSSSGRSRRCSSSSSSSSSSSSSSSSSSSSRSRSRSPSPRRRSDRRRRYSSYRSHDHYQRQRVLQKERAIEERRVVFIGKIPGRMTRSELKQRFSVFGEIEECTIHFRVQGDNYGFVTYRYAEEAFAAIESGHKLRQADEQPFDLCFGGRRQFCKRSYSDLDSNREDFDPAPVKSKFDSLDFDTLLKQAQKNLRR
UniProt P42224: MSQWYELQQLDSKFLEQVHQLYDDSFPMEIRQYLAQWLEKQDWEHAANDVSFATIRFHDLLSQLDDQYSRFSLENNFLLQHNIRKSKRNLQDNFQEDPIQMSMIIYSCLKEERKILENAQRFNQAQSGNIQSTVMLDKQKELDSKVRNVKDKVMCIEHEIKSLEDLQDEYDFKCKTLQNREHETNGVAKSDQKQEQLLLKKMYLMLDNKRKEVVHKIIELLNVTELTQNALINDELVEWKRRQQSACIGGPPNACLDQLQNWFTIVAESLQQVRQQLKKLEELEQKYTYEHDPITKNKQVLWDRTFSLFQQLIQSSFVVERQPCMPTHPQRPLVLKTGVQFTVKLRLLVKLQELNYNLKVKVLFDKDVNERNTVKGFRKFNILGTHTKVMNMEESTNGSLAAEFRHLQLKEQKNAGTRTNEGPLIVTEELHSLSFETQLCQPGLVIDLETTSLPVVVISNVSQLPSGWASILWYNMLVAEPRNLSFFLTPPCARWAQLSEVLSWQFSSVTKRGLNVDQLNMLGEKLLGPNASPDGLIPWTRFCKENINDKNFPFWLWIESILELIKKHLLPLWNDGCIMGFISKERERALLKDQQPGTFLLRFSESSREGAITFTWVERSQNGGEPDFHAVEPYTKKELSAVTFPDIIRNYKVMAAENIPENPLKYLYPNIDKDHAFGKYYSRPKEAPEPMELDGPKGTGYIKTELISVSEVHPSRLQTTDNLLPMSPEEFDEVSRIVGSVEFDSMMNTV

Biological target: PGC1α-Related Coactivator (PRC) with N-terminal Ha and C-terminal Flag tags (PRC-pcDNA3) (UniProt Q5VV67)
Experiment: co-IP; PRC immunoprecipitated (ANTI-FLAG M2 Affinity Gel) from HepG2 cells overexpressing PRC for 48 h; blot probed with indicated antibodies

binding: binds
Substance: Signal Transducer and Activator of Transcription 1 (STAT1) (from UniProt P42224 1-750)
